Data reported in PMC10119424.
Results are given in words; binding and its absence hold for the method and conditions named. In cells and extracts the contact can be indirect. Some entries that bind do so weakly or less than the wild type. One block for each substance: values may come before it.

Protein sequences, listed by entry. Tags and fused reporters are not part of them.
UniProt P63081: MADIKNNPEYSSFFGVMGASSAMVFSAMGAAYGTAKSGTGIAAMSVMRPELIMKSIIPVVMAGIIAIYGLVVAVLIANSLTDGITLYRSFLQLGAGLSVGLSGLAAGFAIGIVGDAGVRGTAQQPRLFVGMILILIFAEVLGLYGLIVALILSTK
UniProt Q2KI41: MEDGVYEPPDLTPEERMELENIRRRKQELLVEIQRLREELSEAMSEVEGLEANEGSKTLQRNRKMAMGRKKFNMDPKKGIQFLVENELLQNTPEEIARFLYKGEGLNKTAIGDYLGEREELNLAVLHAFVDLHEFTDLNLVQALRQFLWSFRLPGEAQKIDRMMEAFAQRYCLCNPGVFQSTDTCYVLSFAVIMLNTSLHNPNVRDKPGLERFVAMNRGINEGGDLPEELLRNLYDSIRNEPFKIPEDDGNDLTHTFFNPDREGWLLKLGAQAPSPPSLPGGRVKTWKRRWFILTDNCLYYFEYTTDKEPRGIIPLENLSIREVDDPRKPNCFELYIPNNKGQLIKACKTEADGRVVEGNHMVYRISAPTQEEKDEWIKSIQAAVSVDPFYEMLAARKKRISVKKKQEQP
UniProt Q99418: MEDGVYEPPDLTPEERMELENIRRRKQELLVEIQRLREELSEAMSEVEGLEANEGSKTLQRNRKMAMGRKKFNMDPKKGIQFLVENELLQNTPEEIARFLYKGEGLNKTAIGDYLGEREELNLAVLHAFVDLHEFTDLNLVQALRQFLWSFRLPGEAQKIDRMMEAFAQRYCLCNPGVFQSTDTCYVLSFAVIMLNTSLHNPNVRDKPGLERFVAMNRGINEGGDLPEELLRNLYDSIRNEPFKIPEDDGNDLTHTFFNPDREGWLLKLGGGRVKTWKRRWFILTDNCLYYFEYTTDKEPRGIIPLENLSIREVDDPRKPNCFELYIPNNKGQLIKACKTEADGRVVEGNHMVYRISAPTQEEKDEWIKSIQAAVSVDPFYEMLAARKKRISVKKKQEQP
UniProt P62332: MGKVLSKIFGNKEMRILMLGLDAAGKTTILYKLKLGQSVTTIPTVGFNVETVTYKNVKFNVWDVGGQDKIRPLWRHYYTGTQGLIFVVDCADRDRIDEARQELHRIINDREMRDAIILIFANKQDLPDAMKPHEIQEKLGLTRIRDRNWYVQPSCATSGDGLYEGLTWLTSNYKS
UniProt Q29466: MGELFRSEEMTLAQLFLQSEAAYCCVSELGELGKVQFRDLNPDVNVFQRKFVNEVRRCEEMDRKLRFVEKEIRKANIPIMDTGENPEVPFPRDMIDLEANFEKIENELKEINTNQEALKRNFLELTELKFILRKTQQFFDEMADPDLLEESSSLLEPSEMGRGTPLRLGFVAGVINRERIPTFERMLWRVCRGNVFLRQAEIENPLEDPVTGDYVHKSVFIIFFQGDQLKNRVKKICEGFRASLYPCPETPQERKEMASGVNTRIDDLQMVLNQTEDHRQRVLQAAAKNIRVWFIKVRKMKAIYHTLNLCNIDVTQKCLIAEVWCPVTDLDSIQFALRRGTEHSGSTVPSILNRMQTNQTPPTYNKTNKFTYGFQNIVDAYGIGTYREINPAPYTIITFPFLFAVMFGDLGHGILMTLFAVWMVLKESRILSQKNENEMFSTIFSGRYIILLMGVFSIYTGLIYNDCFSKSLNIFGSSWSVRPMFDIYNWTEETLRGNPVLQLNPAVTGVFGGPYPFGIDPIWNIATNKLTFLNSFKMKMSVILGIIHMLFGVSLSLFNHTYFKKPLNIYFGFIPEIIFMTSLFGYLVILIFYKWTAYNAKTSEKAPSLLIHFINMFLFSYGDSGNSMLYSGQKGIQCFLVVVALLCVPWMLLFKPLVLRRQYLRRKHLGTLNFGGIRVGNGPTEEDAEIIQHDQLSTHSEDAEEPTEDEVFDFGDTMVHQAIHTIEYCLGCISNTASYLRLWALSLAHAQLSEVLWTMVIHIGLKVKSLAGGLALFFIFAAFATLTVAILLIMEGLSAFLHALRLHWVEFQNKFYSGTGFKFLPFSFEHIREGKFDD
UniProt P25286: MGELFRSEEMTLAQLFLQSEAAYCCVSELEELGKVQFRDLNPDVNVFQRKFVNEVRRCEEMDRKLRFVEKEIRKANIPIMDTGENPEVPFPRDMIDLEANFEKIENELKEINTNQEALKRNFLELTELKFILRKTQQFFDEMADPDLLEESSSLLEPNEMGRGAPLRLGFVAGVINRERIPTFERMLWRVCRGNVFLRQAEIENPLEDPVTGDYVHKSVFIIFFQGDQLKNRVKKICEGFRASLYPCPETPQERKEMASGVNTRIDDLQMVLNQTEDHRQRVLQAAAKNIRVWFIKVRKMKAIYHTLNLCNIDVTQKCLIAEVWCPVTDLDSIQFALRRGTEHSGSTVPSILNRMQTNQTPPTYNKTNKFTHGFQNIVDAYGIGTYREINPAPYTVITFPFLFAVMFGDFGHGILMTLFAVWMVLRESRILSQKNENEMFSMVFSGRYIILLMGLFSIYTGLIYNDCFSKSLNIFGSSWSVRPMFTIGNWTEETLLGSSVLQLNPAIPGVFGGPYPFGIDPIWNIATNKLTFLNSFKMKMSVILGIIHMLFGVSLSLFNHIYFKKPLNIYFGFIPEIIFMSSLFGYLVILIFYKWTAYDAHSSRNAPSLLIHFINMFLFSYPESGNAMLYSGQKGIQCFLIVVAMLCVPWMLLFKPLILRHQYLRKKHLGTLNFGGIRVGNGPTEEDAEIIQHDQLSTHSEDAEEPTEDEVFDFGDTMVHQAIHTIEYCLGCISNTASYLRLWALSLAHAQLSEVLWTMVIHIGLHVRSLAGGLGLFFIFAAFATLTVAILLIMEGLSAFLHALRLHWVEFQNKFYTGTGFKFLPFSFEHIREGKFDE

What was measured:
[1] = biological target: V0c subunit of the V-ATPase (PC12 cells) (UniProt P63081); assay: co-IP; in PC12 cells; data not shown
[2] = biological target: Arf nucleotide-binding site opener (ARNO) (endogenous, bovine chromaffin cells) (bovine (endogenous in bovine chromaffin cells)) (UniProt Q2KI41); assay: co-IP; endogenous proteins from chromaffin cells extract, resting and after cell stimulation; data not shown
ARNO-ShadowG = ARNO-ShadowG (UniProt Q99418); assay: FRET or BRET; FLIM-FRET in live bovine chromaffin cells expressing V0a1-NowGFP (donor) and ARNO-ShadowG (dark acceptor); donor lifetime before and at different times after stimulation with nicotine; two-photon excitation at 930 nm, 37°C, Locke's solution, 60 s acquisition, one-component exponential fit

- binding [1]: binds
Substance: Arf6 GTPase (PC12 cells) (from UniProt P62332 1-175)

- binding [2]: binds
Substance: V0a1 subunit of the V-ATPase (endogenous, bovine chromaffin cells) (from UniProt Q29466 1-838)

- binding (ARNO-ShadowG): binds
Substance: V0a1-NowGFP (from UniProt P25286 1-838)
